## Screening data, single-dose tests

T. brucei: 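Whole-parasite assay of Trypanosoma brucei over 72 hours; the read-out is not stated. Concentration: 30 µM. Direction is inferred from retests: higher values go with stronger inhibition. Values scatter widely below zero; nearly all retest evidence comes from the higher of the two concentrations used. About 64,000 compounds were tested under these conditions; 1.5% (about 940) showed 50% or more at least once.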
Toxoplasma: 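Assay of Toxoplasma gondii numbers, read through their beta-galactosidase reporter with a colour substrate. Concentration: 10 µM. The record gives no direction; the compounds picked for IC50 retests had high values, so higher reads as fewer parasites. Of about 67,000 compounds tested this way, about 260 (0.38%) reached 50% or more in at least one test.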

Values are the deposited “Percent Effect”, in %.
The controls that fix the scale are not given in the record; negative values are as filed.
The compounds are a random part of those screened.
A dash means the value is not listed here; it may have been measured.

| compound | T. brucei | Toxoplasma |
|---|---|---|
| `[H][C@]12CC[C@]([H])(CN(C(=O)c3c[nH]c(=O)c(Cl)c3)C1)N(CC=C(C)C)C2` | -71.38 | 12.55 |
| `CCCN1CCN(Cc2cn(CCC(N)=O)c3ccccc23)CC1` | -5.502 | -3.421 |
| `COc1cc(F)ccc1-c1ncccc1NC(=O)C(C)C` | 52.34 | -16.94 |
| `COc1ccc(Cc2c(O)nc(SC)n(-c3ccccc3)c2=O)cc1` | -59.23 | -0.8038 |
| `Cc1ccc(-c2nc(CNCC3CN(C)CCO3)cs2)o1` (centres undefined) | 4.391 | -2.447 |
| `[H][C@]12CC[C@@]3(N=C(CC)N(CCOC)C3=O)[C@@]1([H])CN(C(=O)NCC(C)C)C2` | 2.823 | -1.97 |
| `COCC1CC2(CCN(C(=O)c3cnc4ccccc4c3)CC2)CO1.O=C(O)C(F)(F)F` (centres undefined) | 25.32 | -5.07 |
| `Cc1cc(C2CCCCCN2Cc2cn(C)nc2C)no1` (centres undefined) | 18.4 | -1.321 |
| `CC(C)N(CC(N)=O)C(=O)c1cc(F)ccc1N1CCN(C)CC1` | -55.07 | 5.981 |
| `Cl.c1ncc(-c2ccc(C3CNCCO3)nc2)cn1` (centres undefined) | -18.07 | -6.234 |
| `COCCNC(C)c1ccc(-c2cccnc2)cc1` (centres undefined) | 2.709 | 2.537 |
| `CC(C)(N)C(=O)N1CCCC1c1cncc(Oc2ccccc2)n1` (centres undefined) | -8.957 | 8.723 |
| `CS(=O)(=O)N1CCC(Oc2ccc(C#N)cc2)CC1` | - | 14.75 |
| `CCOCCNS(=O)(=O)c1ccc2c3c1CCCN3C(=O)CO2` | -22.69 | -30.78 |
| `Cc1cc(C)n(C2CCCN(C(=O)Cc3cn4ccsc4n3)C2)n1` (centres undefined) | -1.249 | 16.12 |
| `CN(Cc1cn2c(n1)CN(Cc1nccs1)CC2)Cc1ccco1.O=C(O)C(F)(F)F.O=C(O)C(F)(F)F` | -23.44 | 19.98 |
| `Cc1ncoc1C(=O)N1CCc2[nH]nc(-c3ccc4c(c3)OCO4)c2C1` | -250.3 | 0.08366 |
| `CC(C(=O)NC1CCCCC1)N1CCc2[nH]nc(C(F)(F)F)c2C1` (centres undefined) | -32.65 | -0.1608 |
| `O=C(O)C(F)(F)F.[H][C@@]12C[C@H](C(=O)N3CCCCO3)CN(CC3CCOCC3)[C@]1([H])CCO2` | -65.43 | -30.48 |
| `CCC(C)NC(=O)c1ccc(NC(=O)CCc2ccncc2)c(C)c1` (centres undefined) | -5.402 | -8.67 |
| `CCc1nnc2n1CCN(C(C(=O)NC1CC1)c1ccccc1)C2` (centres undefined) | 0.8774 | 1.643 |
| `COCC1c2nnn(C)c2CCN1C(=O)Cc1ccc2c(c1)OCO2` (centres undefined) | -53.77 | 2.212 |
| `COC[C@H]1CCC[C@]12CN(CCc1ccccc1)CCO2.O=C(O)C(F)(F)F` | 25.09 | -6.097 |
| `O=C(c1cn(-c2ccc(C(F)(F)F)cn2)nn1)N1CCCCCC1` | 17.16 | -1.915 |
| `Cl.Clc1ccccc1CN1CCc2nc(C3CCNCC3)ncc2C1` | 9.906 | -15.04 |
| `Cc1cnn(C2CCCN(C(=O)c3cn(-c4ccccc4)nn3)C2)c1` (centres undefined) | - | 21.74 |
| `COC(C)(CNS(=O)(=O)c1cccnc1)c1ccccc1F` (centres undefined) | 4.634 | 9.522 |
| `c1ccc2sc(N3CCOC(Cn4cccn4)C3)nc2c1` (centres undefined) | 12.54 | 3.159 |
| `COc1nc(C)c(C(=O)N2CCc3[nH]nc(C4CCCC4)c3C2)s1` | -10.29 | 20.3 |
| `Cc1ccc(C(=O)NCC2(O)CCOCC2)cc1Br` | -4.116 | 0.6924 |
| `Fc1ccc(Cn2ncc3c2CN(c2noc(C4CC4)n2)C3)cc1` | -17.75 | 4.026 |
| `c1cnc(N2CCC(NCc3cnc(C4CCC4)s3)CC2)nc1` | 0.4429 | 2.37 |
| `CSc1ccc(CNC(c2ccccc2F)c2nccn2C)cc1.Cl` (centres undefined) | - | 4.22 |
| `N#Cc1ccc(C2CC(=O)Nc3c2cnn3C2CCCC2)cc1` (centres undefined) | 29.15 | -0.6608 |
| `CNC(=O)c1cnc2c(C)csc2c1` | -28.68 | -1.802 |
| `O=C(COCC(=O)N(c1ccccc1)c1ccccc1)N1CCOCC1` | -22.96 | -0.2533 |
| `CN(C)C(=O)c1ccc2c(c1)N(C)C(CC(=O)NCc1ncc[nH]1)CO2` (centres undefined) | -10.94 | 3.209 |
| `COCC(=O)N1CCCC1c1cccc(Cc2ccccc2F)n1` (centres undefined) | -5.491 | -14.3 |
| `[H][C@@]12COC[C@@H](C(=O)NC)[C@]1([H])CN(C(=O)c1ccc(CC)cc1)C2` | -16.62 | 14.55 |
| `C[S+]([O-])c1nncn1CC(=O)c1cccc(Br)c1` (centres undefined) | 4.122 | -2.493 |
| `COc1ccc(-c2n[nH]c(C)c2CC(=O)NCCN2CCOCC2)cc1` | -6.507 | - |
| `O=C1CCc2cc(NC(=O)C3CCCN3c3nccs3)ccc2N1` (centres undefined) | -0.642 | -0.2347 |
| `CC(=O)NCCNC(=O)c1cnc(C(C)(C)C)s1` | -14.54 | -9.306 |
| `COCC(=O)N1Cc2cn(C)nc2C(COc2cccnc2)C1` (centres undefined) | -10.85 | 0.9978 |
| `[H][C@]12CCN(C(=O)c3ccco3)[C@@]1([H])CC[C@@H](COCC1CCOCC1)O2` | -64.77 | -0.5682 |

Once more, the final 2:

{"compound": "COCC(=O)N1Cc2cn(C)nc2C(COc2cccnc2)C1", "stereo": "centres undefined", "T. brucei": -10.85, "Toxoplasma": 0.9978}
{"compound": "[H][C@]12CCN(C(=O)c3ccco3)[C@@]1([H])CC[C@@H](COCC1CCOCC1)O2", "T. brucei": -64.77, "Toxoplasma": -0.5682}

Measurements from “University of Dundee, Small-Polar-MMV Screening Library” (2021), ChEMBL document CHEMBL3988442.